Assay results taken from the supplement of paper PMC12067093, “Discovery and optimisation of a covalent ligand for TRIM25 and its application to targeted protein ubiquitination” (Chemical Science, 2025).
This is one part of the list.

By UniProt entry, the sequences of proteins in these tests, tags left out. Where a name states a change or a piece, a line headed by the entry shows the natural chain unless it says otherwise.
UniProt Q14683: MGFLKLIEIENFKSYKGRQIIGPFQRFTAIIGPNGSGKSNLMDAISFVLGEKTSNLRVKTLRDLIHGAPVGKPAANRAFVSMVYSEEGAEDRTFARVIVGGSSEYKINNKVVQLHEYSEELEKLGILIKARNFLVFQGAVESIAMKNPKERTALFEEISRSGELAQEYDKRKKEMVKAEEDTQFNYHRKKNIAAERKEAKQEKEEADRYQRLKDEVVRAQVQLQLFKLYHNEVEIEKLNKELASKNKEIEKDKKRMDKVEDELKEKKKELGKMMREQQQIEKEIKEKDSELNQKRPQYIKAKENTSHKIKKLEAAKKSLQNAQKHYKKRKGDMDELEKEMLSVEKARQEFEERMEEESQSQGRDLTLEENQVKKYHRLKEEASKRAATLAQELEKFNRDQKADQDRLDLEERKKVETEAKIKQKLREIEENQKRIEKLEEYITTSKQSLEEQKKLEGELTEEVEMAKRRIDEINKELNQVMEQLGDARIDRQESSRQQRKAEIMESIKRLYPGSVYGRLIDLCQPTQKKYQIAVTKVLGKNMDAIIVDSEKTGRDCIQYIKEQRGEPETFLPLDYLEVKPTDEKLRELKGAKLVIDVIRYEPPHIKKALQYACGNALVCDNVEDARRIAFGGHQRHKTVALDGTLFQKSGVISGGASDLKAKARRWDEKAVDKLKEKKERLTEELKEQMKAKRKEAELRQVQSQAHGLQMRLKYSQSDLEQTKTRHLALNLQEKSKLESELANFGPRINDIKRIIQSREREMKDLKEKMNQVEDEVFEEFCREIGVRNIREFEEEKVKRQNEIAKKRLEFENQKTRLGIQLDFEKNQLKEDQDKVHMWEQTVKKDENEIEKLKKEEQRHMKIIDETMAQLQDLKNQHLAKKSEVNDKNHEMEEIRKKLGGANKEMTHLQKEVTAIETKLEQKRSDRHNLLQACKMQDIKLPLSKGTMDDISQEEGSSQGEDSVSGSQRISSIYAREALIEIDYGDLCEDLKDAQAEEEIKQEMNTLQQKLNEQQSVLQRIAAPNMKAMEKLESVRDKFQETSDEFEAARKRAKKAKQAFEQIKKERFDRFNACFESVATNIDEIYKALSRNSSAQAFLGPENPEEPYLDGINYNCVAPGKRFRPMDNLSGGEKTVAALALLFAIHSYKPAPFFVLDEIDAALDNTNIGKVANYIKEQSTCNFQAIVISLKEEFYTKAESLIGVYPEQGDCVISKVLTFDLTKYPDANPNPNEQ
UniProt Q96Q15: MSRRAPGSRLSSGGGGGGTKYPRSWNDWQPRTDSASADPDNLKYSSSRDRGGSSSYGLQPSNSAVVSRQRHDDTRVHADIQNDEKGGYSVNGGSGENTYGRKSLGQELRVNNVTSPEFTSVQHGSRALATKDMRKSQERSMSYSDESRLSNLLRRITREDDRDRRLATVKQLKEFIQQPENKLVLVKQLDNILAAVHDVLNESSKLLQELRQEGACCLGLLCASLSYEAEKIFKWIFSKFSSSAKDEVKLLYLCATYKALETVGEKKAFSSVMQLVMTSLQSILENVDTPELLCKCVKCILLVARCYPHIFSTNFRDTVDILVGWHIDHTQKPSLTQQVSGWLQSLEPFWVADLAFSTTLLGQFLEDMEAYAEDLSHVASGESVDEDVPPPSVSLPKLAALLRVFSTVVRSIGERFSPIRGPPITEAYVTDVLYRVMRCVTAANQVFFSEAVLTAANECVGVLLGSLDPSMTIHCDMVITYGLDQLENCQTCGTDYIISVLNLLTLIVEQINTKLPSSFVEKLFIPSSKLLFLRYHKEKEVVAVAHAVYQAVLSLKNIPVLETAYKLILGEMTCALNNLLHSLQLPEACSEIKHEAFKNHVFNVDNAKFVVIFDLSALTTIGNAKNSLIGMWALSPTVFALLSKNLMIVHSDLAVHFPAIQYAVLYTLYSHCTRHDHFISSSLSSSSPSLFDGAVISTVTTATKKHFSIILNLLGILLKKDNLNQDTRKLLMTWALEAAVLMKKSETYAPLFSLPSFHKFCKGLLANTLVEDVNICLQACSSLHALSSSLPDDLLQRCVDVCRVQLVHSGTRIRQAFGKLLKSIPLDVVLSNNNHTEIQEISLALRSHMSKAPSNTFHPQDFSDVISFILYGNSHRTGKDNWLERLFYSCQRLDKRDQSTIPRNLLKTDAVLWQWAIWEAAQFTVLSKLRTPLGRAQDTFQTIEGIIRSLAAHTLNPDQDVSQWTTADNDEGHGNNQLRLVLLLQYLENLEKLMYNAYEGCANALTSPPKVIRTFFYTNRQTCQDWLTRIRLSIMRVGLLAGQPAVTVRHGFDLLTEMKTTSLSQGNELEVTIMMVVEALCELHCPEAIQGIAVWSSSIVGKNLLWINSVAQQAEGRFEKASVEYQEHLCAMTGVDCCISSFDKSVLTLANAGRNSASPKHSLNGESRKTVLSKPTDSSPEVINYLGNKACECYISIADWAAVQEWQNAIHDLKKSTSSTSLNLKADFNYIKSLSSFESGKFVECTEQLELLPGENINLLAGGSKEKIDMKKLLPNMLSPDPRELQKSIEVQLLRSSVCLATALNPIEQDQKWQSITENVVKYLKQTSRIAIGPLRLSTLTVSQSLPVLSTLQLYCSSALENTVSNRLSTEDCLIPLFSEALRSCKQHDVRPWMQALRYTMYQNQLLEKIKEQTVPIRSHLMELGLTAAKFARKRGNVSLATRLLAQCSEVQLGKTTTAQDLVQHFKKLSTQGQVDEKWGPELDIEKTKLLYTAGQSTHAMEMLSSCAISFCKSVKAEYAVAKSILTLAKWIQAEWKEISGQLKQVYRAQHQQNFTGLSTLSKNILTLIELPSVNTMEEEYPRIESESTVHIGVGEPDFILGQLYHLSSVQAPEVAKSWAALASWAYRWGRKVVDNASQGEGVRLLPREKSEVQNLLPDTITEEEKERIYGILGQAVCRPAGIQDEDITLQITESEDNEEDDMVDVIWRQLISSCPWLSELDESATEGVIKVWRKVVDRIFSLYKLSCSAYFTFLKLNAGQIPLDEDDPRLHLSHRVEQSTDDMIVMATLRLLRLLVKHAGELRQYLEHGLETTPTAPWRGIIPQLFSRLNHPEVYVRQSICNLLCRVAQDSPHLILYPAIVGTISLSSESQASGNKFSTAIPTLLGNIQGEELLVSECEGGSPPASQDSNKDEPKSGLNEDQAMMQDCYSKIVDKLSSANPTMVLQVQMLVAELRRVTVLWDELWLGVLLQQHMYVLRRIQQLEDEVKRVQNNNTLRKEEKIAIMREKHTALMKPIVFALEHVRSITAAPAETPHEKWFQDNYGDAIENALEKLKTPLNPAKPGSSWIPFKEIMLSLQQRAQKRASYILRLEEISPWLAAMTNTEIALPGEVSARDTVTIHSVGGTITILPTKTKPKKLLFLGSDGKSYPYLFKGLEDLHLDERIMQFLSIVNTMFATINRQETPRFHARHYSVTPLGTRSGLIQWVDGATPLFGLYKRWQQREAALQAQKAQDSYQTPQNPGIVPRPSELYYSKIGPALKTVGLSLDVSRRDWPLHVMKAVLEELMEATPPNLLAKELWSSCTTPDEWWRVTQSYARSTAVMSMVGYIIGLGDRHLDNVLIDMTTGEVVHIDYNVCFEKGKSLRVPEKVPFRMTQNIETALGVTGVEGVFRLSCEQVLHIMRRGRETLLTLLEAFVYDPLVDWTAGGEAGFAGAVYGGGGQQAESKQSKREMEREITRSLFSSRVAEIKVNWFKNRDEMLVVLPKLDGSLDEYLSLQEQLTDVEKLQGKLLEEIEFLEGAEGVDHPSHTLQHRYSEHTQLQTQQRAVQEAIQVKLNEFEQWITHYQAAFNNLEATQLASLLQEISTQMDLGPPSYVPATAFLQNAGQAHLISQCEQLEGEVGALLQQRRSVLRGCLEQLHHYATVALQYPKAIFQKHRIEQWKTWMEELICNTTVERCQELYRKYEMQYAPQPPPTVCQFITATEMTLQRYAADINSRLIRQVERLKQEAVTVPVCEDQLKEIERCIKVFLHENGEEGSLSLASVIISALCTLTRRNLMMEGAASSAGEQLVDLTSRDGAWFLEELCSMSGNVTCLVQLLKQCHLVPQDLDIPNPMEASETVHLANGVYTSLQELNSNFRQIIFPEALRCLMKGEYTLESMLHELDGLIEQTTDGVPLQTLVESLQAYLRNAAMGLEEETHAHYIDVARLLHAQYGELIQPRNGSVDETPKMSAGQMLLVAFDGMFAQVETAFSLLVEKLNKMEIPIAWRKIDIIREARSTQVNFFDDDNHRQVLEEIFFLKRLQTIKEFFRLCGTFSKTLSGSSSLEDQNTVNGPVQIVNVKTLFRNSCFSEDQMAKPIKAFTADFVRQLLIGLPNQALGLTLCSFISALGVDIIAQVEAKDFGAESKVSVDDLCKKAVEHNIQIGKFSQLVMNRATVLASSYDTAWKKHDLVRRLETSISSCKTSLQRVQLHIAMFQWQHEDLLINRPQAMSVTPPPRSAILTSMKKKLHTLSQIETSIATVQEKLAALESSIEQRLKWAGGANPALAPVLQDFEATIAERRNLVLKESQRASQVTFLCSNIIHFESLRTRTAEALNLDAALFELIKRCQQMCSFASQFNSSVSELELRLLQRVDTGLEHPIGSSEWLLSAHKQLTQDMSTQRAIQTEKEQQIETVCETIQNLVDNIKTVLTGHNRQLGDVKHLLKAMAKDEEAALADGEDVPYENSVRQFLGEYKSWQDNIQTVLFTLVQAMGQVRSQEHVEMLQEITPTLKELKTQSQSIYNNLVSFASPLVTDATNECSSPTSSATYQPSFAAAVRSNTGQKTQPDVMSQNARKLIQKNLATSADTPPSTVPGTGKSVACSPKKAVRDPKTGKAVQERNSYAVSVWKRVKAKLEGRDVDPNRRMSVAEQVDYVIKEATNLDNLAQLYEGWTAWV
UniProt P51531, whole entry, looked up: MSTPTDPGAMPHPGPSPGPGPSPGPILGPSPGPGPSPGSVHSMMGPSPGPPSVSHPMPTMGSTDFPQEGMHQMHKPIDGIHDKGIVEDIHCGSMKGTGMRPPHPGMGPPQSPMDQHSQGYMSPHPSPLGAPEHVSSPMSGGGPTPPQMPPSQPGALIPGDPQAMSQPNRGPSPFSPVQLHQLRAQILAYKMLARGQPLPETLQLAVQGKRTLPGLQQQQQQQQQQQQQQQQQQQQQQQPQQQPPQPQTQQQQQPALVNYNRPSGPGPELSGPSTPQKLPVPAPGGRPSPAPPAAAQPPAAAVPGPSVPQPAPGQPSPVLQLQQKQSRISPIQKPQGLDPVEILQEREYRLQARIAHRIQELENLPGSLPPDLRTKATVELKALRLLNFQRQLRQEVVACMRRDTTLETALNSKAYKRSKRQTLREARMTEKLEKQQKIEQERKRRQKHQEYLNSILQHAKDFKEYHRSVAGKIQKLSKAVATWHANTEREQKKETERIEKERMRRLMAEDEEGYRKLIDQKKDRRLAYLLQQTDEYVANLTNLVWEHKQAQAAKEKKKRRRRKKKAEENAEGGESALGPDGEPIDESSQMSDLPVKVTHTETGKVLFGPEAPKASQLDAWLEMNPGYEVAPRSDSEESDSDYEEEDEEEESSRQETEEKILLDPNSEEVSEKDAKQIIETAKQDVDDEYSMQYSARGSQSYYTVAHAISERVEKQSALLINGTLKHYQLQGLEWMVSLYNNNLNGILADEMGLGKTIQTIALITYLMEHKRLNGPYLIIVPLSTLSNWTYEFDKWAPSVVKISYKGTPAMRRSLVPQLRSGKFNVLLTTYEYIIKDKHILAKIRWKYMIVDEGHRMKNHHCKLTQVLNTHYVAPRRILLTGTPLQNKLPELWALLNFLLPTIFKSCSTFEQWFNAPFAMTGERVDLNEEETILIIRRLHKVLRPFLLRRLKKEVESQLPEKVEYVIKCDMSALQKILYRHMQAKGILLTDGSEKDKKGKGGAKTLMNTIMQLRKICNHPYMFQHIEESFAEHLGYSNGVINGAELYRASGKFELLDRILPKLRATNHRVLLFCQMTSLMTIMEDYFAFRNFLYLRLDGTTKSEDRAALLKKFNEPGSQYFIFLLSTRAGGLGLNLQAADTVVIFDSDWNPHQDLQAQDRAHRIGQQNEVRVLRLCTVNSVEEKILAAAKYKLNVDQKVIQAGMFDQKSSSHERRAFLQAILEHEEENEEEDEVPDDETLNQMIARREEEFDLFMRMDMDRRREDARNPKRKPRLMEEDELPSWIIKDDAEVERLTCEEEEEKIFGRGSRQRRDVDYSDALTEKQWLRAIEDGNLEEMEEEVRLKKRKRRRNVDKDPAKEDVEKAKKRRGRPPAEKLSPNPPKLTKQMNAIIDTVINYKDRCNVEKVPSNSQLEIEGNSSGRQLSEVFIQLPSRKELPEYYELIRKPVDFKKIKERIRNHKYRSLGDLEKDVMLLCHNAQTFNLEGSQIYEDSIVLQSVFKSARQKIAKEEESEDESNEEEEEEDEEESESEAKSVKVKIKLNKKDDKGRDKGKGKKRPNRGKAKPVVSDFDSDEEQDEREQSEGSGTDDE

Compound: Cc1cc(ccc1-c1ccccc1)C(=O)N1CCCN(CC1)C(=O)CCl [compound 10]
Assay: probe-labelled cysteine peptide fold change vs DMSO (competition) (log2 fold change); higher = less target engagement (more negative = stronger competition)
Settings: THP-1, incubation time: 4 h
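Further: competitive profiling in live THP-1 cells: cysteine peptides tagged with an iodoacetamide desthiobiotin (IA-DTB) probe, intensity after compound treatment relative to DMSO-treated cells.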

Target | probe-labelled cysteine peptide fold change (10 µM) | probe-labelled cysteine peptide fold change (50 µM)
SLC9A1_P19634_794_CLSDPGPHPEPGEGEPFFPK (UniProt P19634) | -0.234 | -0.0551
SMC4_Q9NTJ3_1083_CHEMKPNLGAIAEYK (UniProt Q9NTJ3) | -0.146 | -0.316
SLC44A1_Q8WWI5_159_SSVLCPK (UniProt Q8WWI5) | -0.162 | 0.0545
SMYD5_Q6GMV2_101_LTGKPGQVLPHPELCTVRK (UniProt Q6GMV2) | -0.143 | -0.87
SMC1A_Q14683_1210_AESLIGVYPEQGDCVISK (UniProt Q14683) | -0.118 | -0.0803
SNRNP200_O75643_588_EEISATQIIVCTPEK (UniProt O75643) | 0.155 | 0.273
SMC1A_Q14683_619_ALQYACGNALVCDNVEDARR (UniProt Q14683) | -0.0448 | 0.0252
SMG5_Q9UPR3_109_STLECAYR (UniProt Q9UPR3) | -0.0866 | -0.12
SLFN13_Q68D06_286_LPIVHFCSSKPR (UniProt Q68D06) | 0.0763 | -0.265
SMARCC1_Q92922_462_SVDLGEDNVTEQTNHIIIPSYASWFDYNCIHVIER (UniProt Q92922) | -0.0743 | -0.235
SMG1_Q96Q15_1715_QLISSCPWLSELDESATEGVIK (UniProt Q96Q15) | -0.0563 | 0.224
SMNDC1_O75940_214_VGVGTCGIADKPMTQYQDTSK (UniProt O75940) | 0.155 | -0.732
SLC5A6_Q9Y289_577_LLSLLPLSCQK (UniProt Q9Y289) | -0.114 | -0.245
SMC5_Q8IY18_229_QLETSCK (UniProt Q8IY18) | -0.019 | -0.0908
SMARCA2_P51531_399_QLRQEVVACMR (UniProt P51531) | -0.0153 | -0.287
SMCHD1_A6NHR9_505_GLAPIECYNR (UniProt A6NHR9) | -0.01 | 0.164
SMARCA4_P51532_1046_ICNHPYMFQHIEESFSEHLGFTGGIVQGLDLYR (UniProt P51532) | -0.148 | 0.107
SMCHD1_A6NHR9_1445_DNDKEDGCFYFR (UniProt A6NHR9) | -0.115 | 0.171
SLC9A3R1_O14745_15_LCCLEK (UniProt O14745) | -0.0428 | -0.489
SLC35B1_P78383_119_SCKPIPVMLLGVTLLK (UniProt P78383) | -0.681 | 0.072
SLC31A1_O15431_189_AVVVDITEHCH (UniProt O15431) | -0.109 | -0.171
SMU1_Q2TAY7_219_SHVECAR (UniProt Q2TAY7) | -0.121 | 0.135
SMG1_Q96Q15_2738_LKQEAVTVPVCEDQLK (UniProt Q96Q15) | 0.0346 | -0.212
SNRPD2_P62316_46_NNTQVLINCR (UniProt P62316) | 0.0588 | -0.00654
SLC30A1_Q9Y6M5_447_QCCGTLPQAPSGK (UniProt Q9Y6M5) | -0.473 | -0.86
SMCHD1_A6NHR9_1445_IKDNDKEDGCFYFR (UniProt A6NHR9) | -0.113 | -0.578
SMCHD1_A6NHR9_985_FSGAPNLPVYVVDCSSSGTSILTGSAIQVQNIKK (UniProt A6NHR9) | 0.018 | -0.353
SMARCA2_P51531_968_CDMSALQK (UniProt P51531) | 0.144 | 0.232
SNRPB_P14678_43+45_HMNLILCDCDEFR (UniProt P14678) | -0.0482 | -0.0531

Reprinted at random: 2 records from the list
Target | probe-labelled cysteine peptide fold change (10 µM) | probe-labelled cysteine peptide fold change (50 µM)
SLC30A1_Q9Y6M5_447_QCCGTLPQAPSGK (UniProt Q9Y6M5) | -0.473 | -0.86
SNRNP200_O75643_588_EEISATQIIVCTPEK (UniProt O75643) | 0.155 | 0.273
